# Test system: T. gondii intracellular tachyzoites
# Format: cell-based, Toxoplasma gondii RH-2F1
# Settings: ratio CC50 / EC50
# Method: Toxoplasma gondii RH-2F1 tachyzoites, which express β-galactosidase, were maintained in human foreskin fibroblasts (HFFs). HFFs were cultured in Dulbecco’s Modified Eagle Medium (DMEM) supplemented with 10% fetal bovine serum (FBS), 2 mM L-glutamine, and 40 μg/mL gentamicin (referred to as D10) and incubated at 37 °C in a 5% CO2 humidified atmosphere. For infection assays, confluent monolayers were maintained in DMEM with 2% FBS (D2) prior to parasite inoculation.
# For in vitro assays in 96-well plates, HFFs were seeded at 5 × 10^3 cells/well in the D10 medium and incubated for 12–16 h to allow adherence. […] For antiparasitic assays, HFFs were infected with RH-2F1 tachyzoites at a multiplicity of infection (MOI) of 1:1 for 3 h.
# Parasite proliferation was assessed by quantifying β-galactosidase activity, as previously described. Briefly, after the 72 h incubation, cells were lysed in 100 μL of lysis buffer (100 mM HEPES pH 7.5, 1 mM MgSO4, 0.1% Triton X-100, 5 mM DTT) for 15 min at room temperature. […] Following a 30 min incubation at 37 °C, absorbance was measured at 570 nm using a Varioskan LUX microplate reader (Thermo Scientific). Each assay included viability controls (untreated infected cells), solvent controls (1% DMSO), a positive control (1 μM pyrimethamine), and experimental blanks (no cells). All conditions were tested in two biological replicates in three independent experiments.
# Compounds from the GHPB library were screened at a final concentration of 1 μM in infected HFF monolayers, using the β-galactosidase assay as a readout for parasite viability after 72 h.
row,Structure (SMILES),SI
1,"CCc1nc(N)nc(N)c1-c1ccc(Cl)cc1 [Pyrimethamine, reference compound]",> 131

# Same assay, conditions: selectivity index = CC50 (HFF)/EC50 (T. gondii)
row,Structure (SMILES),SI
1,O=C(Nc1ccc(Cl)c(C(F)(F)F)c1)Nc1ccc(Cl)c(C(F)(F)F)c1 [MMV027339],11
2,"O=C(NC(=O)c1ccccc1Cl)Nc1ccc(OC(F)(F)F)cc1 [MMV689404, Triflumuron]",> 103
3,CN(C)C1CC(NC(=O)c2ccc(Nc3nccc(-c4ccc(Cl)c(C(F)(F)F)c4)n3)cc2)C1 (stereo not drawn) [MMV884814],5
4,O=C(Nc1ncccc1O)c1ccc(N2CCOCC2)nc1 [MMV1103183],>70
5,O=C(Nc1ncccc1O)c1ccc(Cn2cccn2)cc1 [MMV1266067],>68
6,O=C(Nc1ncccc1O)c1ccc(S(=O)(=O)NCCc2cccs2)cc1 [MMV1435700],59
7,Cn1c(O)c(C(=O)Nc2ccc(Cl)c(Cl)c2)c(=O)n(C)c1=O [MMV1634081],59

# Same assay, conditions: selectivity index = CC50 (HFF)/EC50 (T. gondii); listed as Triflumuron
row,Structure (SMILES),SI
1,"O=C(NC(=O)c1ccccc1Cl)Nc1ccc(OC(F)(F)F)cc1 [MMV689404, Triflumuron]",> 100
